Where a chain is given by its changes, count along the chain named. Results are given in words; binding and its absence hold for the method and conditions named. A result given as binding can be weak or reduced; the word gives no strength.

The assay concerns the target Flk-1/EpoR chimera on cells (pmKE2) (mouse; human). Put plainly: flow cytometry on CHO-Flk, His6-tagged protein, anti-His6 and labeled anti-mouse antibody. (In general: Flow cytometry measures light scatter and fluorescence of single cells or particles in a stream.)

B1: E18 (designed binder)
chain: EVVAATPTSLLISWRHPHFPTRYYRITYGETGGNSPVQEFTVPLQPPTATISGLKPGVDYTITGYAVTVERNGRELNTPISINYRT
As to B1, the binding result was “binds”.

B2: E29 (designed binder)
chain: B1 chain with E75V, N77M
Consider B2, for which the binding entry is given as “binds”.

B3: E19 (designed binder)
chain: B1 chain with E75H, N77M
In the case of B3, the binding entry is reported as “binds”.

The record behind these values is patent publication US20080220049A1.
